Results on 1 compound are retold here after US4672068A, “Antihypertensive 1,4-dihydropyridines having a conjugated ester” (Fujirebio Kabushiki Kaisha, priority 1984, dated 1987).

The test deals with Male spontaneously hypertensive rats (SHR), arterial blood pressure. Put plainly: Depressor response after intraduodenal administration (1 mg/kg), Table 2. In kind it is in vivo, rat. The following applies: '120<' means greater than 120. The protocol: Arterial blood pressure was measured through the catherized artery with a pressure transducer (MPU-0.5, manufactured by Nihon Kohden Kabushiki Kaisha). The catheter was inserted into the abdominal aorta via the median coccygcal artery of SHR under light ether anesthesia. The recordings were made on a rectigraph (manufactured by Sanei Sokki Kabushiki Kaisha). The 1,4-dihydropyridine derivatives prepared in the foregoing examples were administered with catheter which was inserted previously into the caudal vein or duodenum at least two hours after the operation. SHR were restrained with wire mesh cage immediately after the operation.

SMILES strings stand for the structures.

Compound `COC(=O)C1=C(C)NC(C)=C(C(=O)OC)C1c1ccccc1[N+](=O)[O-]` [A, 4-(o-nitrophenyl)-2,6-dimethyl-1,4-dihydropyridine-3,5-dicarboxylic acid dimethyl ester, reference compound] had a Half-life of 20.0 min.
